# Assay results as given in PMC11193767.
# Chains of the proteins cited; added tags and fusions are not shown.
# UniProt Q8IWT6: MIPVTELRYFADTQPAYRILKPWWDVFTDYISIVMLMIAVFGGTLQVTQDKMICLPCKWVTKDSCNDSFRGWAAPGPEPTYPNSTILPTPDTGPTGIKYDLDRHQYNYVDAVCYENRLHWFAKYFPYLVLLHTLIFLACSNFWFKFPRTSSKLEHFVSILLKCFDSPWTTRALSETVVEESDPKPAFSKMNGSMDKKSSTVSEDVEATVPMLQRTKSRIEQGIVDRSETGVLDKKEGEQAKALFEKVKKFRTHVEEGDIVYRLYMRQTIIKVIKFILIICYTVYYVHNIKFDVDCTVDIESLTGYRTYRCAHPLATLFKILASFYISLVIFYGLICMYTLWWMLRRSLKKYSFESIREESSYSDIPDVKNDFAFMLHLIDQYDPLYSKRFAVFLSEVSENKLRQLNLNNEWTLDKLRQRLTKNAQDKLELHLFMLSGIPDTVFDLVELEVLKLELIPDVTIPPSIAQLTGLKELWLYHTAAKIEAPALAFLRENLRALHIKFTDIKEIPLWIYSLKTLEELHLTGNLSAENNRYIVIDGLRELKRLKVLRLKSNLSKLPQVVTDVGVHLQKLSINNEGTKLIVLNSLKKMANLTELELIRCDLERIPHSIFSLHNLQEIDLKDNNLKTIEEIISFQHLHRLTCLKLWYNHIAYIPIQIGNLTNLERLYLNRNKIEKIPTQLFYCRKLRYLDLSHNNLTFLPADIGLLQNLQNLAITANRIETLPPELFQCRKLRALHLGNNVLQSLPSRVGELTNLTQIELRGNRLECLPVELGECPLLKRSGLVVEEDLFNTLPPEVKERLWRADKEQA
# No constants are given. Whether binding was seen depends on the method and setting. In cells and extracts the contact can be indirect. A yes stands for co-enrichment or nearness to the bait. Other partners may have been found. Tags and fused reporters may be left off the sequences shown.
# Target: LRRC8A-BirA*-HA fusion protein (human) (UniProt Q8IWT6)
# Assay: proximity labelling; BioID: HEK293 cells stably expressing LRRC8A-BirA*-HA (two clones), 50 uM biotin 24 h, RIPA lysis, streptavidin bead pull-down of biotinylated proteins, TMT labelling and LC-MS/MS; hits: FDR <= 0.05 and fold change >= 2 against the no-biotin control
row,Binder,binding
1,"Catenin delta-1 (protein, UniProt O60716-1 1-968) MDDSEVESTASILASVKEQEAQFEKLTRALEEERRHVSAQLERVRVSPQDANPLMANGTLTRRHQNGRFVGDADLERQKFSDLKLNGPQDHSHLLYSTIPRMQEPGQIVETYTEEDPEGAMSVVSVETSDDGTTRRTETTVKKVVKTVTTRTVQPVAMGPDGLPVDASSVSNNYIQTLGRDFRKNGNGGPGPYVGQAGTATLPRNFHYPPDGYSRHYEDGYPGGSDNYGSLSRVTRIEERYRPSMEGYRAPSRQDVYGPQPQVRVGGSSVDLHRFHPEPYGLEDDQRSMGYDDLDYGMMSDYGTARRTGTPSDPRRRLRSYEDMIGEEVPSDQYYWAPLAQHERGSLASLDSLRKGGPPPPNWRQPELPEVIAMLGFRLDAVKSNAAAYLQHLCYRNDKVKTDVRKLKGIPVLVGLLDHPKKEVHLGACGALKNISFGRDQDNKIAIKNCDGVPALVRLLRKARDMDLTEVITGTLWNLSSHDSIKMEIVDHALHALTDEVIIPHSGWEREPNEDCKPRHIEWESVLTNTAGCLRNVSSERSEARRKLRECDGLVDALIFIVQAEIGQKDSDSKLVENCVCLLRNLSYQVHREIPQAERYQEAAPNVANNTGPHAASCFGAKKGKDEWFSRGKKPIEDPANDTVDFPKRTSPARGYELLFQPEVVRIYISLLKESKTPAILEASAGAIQNLCAGRWTYGRYIRSALRQEKALSAIADLLTNEHERVVKAASGALRNLAVDARNKELIGKHAIPNLVKNLPGGQQNSSWNFSEDTVISILNTINEVIAENLEAAKKLRETQGIEKLVLINKSGNRSEKEVRAAALVLQTIWGYKELRKPLEKEGWKKSDFQVNLNNASRSQSSHSYDDSTLPLIDRNQKSDKKPDREEIQMSNMGSNTKSLDNNYSTPNERGDHNRTLDRSGDLGDMEPLKGTTPLMQDEGQESLEEELDVLVLDDEGGQVSYPSMQKI",binds
2,"Dehydrogenase/reductase SDR family member 13 (protein, UniProt Q6UX07-1 26-377) PPCGGMGNLRGRTAVVTGANSGIGKMTALELARRGARVVLACRSQERGEAAAFDLRQESGNNEVIFMALDLASLASVRAFATAFLSSEPRLDILIHNAGISSCGRTREAFNLLLRVNHIGPFLLTHLLLPCLKACAPSRVVVVASAAHCRGRLDFKRLDRPVVGWRQELRAYADTKLANVLFARELANQLEATGVTCYAAHPGPVNSELFLRHVPGWLRPLLRPLAWLVLRAPRGGAQTPLYCALQEGIEPLSGRYFANCHVEEVPPAARDDRAAHRLWEASKRLAGLGPGEDAEPDEDPQSEDSEAPSSLSTPHPEEPTVSQPYPSPQSSPDLSKMTHRIQAKVEPEIQLS",binds
3,"Active breakpoint cluster region-related protein (protein, UniProt Q12979-1 1-859) MEPLSHRGLPRLSWIDTLYSNFSYGTDEYDGEGNEEQKGPPEGSETMPYIDESPTMSPQLSARSQGGGDGVSPTPPEGLAPGVEAGKGLEMRKLVLSGFLASEEIYINQLEALLLPMKPLKATATTSQPVLTIQQIETIFYKIQDIYEIHKEFYDNLCPKVQQWDSQVTMGHLFQKLASQLGVYKAFVDNYKVALETAEKCSQSNNQFQKISEELKVKGPKDSKDSHTSVTMEALLYKPIDRVTRSTLVLHDLLKHTPVDHPDYPLLQDALRISQNFLSSINEDIDPRRTAVTTPKGETRQLVKDGFLVEVSESSRKLRHVFLFTDVLLCAKLKKTSAGKHQQYDCKWYIPLADLVFPSPEESEASPQVHPFPDHELEDMKMKISALKSEIQKEKANKGQSRAIERLKKKMFENEFLLLLNSPTIPFRIHNRNGKSYLFLLSSDYERSEWREAIQKLQKKDLQAFVLSSVELQVLTGSCFKLRTVHNIPVTSNKDDDESPGLYGFLHVIVHSAKGFKQSANLYCTLEVDSFGYFVSKAKTRVFRDTAEPKWDEEFEIELEGSQSLRILCYEKCYDKTKVNKDNNEIVDKIMGKGQIQLDPQTVETKNWHTDVIEMNGIKVEFSMKFTSRDMSLKRTPSKKQTGVFGVKISVVTKRERSKVPYIVRQCVEEVEKRGIEEVGIYRISGVATDIQALKAVFDANNKDILLMLSDMDINAIAGTLKLYFRELPEPLLTDRLYPAFMEGIALSDPAAKENCMMHLLRSLPDPNLITFLFLLEHLKRVAEKEPINKMSLHNLATVFGPTLLRPSEVESKAHLTSAADIWSHDVMAQVQVLLYYLQHPPISFAELKRNTLYFSTDV",binds
4,"Protein EFR3 homolog A (protein, UniProt Q14156-1 1-821) MPTRVCCCCSALRPRYKRLVDNIFPEDPKDGLVKTDMEKLTFYAVSAPEKLDRIGSYLAERLSRDVVRHRSGYVLIAMEALDQLLMACHSQSIKPFVESFLHMVAKLLESGEPKLQVLGTNSFVKFANIEEDTPSYHRRYDFFVSRFSAMCHSCHSDPEIRTEIRIAGIRGIQGVVRKTVNDELRATIWEPQHMDKIVPSLLFNMQKIEEVDSRIGPPSSPSATDKEENPAVLAENCFRELLGRATFGNMNNAVRPVFAHLDHHKLWDPNEFAVHCFKIIMYSIQAQYSHHVIQEILGHLDARKKDAPRVRAGIIQVLLEAVAIAAKGSIGPTVLEVFNTLLKHLRLSVEFEANDLQGGSVGSVNLNTSSKDNDEKIVQNAIIQTIGFFGSNLPDYQRSEIMMFIMGKVPVFGTSTHTLDISQLGDLGTRRIQIMLLRSLLMVTSGYKAKTIVTALPGSFLDPLLSPSLMEDYELRQLVLEVMHNLMDRHDNRAKLRGIRIIPDVADLKIKREKICRQDTSFMKKNGQQLYRHIYLGCKEEDNVQKNYELLYTSLALITIELANEEVVIDLIRLAIALQDSAIINEDNLPMFHRCGIMALVAAYLNFVSQMIAVPAFCQHVSKVIEIRTMEAPYFLPEHIFRDKCMLPKSLEKHEKDLYFLTNKIAESLGGSGYSVERLSVPYVPQVTDEDRLSRRKSIVDTVSIQVDILSNNVPSDDVVSNTEEITFEALKKAIDTSGMEEQEKEKRRLVIEKFQKAPFEEIAAQCESKANLLHDRLAQILELTIRPPPSPSGTLTITSGHAQYQSVPVYEMKFPDLCVY",binds
5,"Protein EFR3 homolog B (protein, UniProt Q9Y2G0-1 1-817) MYGVCGCCGALRPRYKRLVDNIFPEDPEDGLVKTNMEKLTFYALSAPEKLDRIGAYLSERLIRDVGRHRYGYVCIAMEALDQLLMACHCQSINLFVESFLKMVAKLLESEKPNLQILGTNSFVKFANIEEDTPSYHRSYDFFVSRFSEMCHSSHDDLEIKTKIRMSGIKGLQGVVRKTVNDELQANIWDPQHMDKIVPSLLFNLQHVEEAESRSPSPLQAPEKEKESPAELAERCLRELLGRAAFGNIKNAIKPVLIHLDNHSLWEPKVFAIRCFKIIMYSIQPQHSHLVIQQLLGHLDANSRSAATVRAGIVEVLSEAAVIAATGSVGPTVLEMFNTLLRQLRLSIDYALTGSYDGAVSLGTKIIKEHEERMFQEAVIKTVGSFASTLPTYQRSEVILFIMSKVPRPSLHQAVDTGRTGENRNRLTQIMLLKSLLQVSTGFQCNNMMSALPSNFLDRLLSTALMEDAEIRLFVLEILISFIDRHGNRHKFSTISTLSDISVLKLKVDKCSRQDTVFMKKHSQQLYRHIYLSCKEETNVQKHYEALYGLLALISIELANEEVVVDLIRLVLAVQDVAQVNEENLPVYNRCALYALGAAYLNLISQLTTVPAFCQHIHEVIETRKKEAPYMLPEDVFVERPRLSQNLDGVVIELLFRQSKISEVLGGSGYNSDRLCLPYIPQLTDEDRLSKRRSIGETISLQVEVESRNSPEKEERVPAEEITYETLKKAIVDSVAVEEQERERRRQVVEKFQKAPFEEIAAHCGARASLLQSKLNQIFEITIRPPPSPSGTITAAYGQPQNHSIPVYEMKFPDLCVY",binds
6,"Epidermal growth factor receptor substrate 15 (protein, UniProt P42566-1 1-896) MAAAAQLSLTQLSSGNPVYEKYYRQVDTGNTGRVLASDAAAFLKKSGLPDLILGKIWDLADTDGKGILNKQEFFVALRLVACAQNGLEVSLSSLNLAVPPPRFHDTSSPLLISGTSAAELPWAVKPEDKAKYDAIFDSLSPVNGFLSGDKVKPVLLNSKLPVDILGRVWELSDIDHDGMLDRDEFAVAMFLVYCALEKEPVPMSLPPALVPPSKRKTWVVSPAEKAKYDEIFLKTDKDMDGFVSGLEVREIFLKTGLPSTLLAHIWSLCDTKDCGKLSKDQFALAFHLISQKLIKGIDPPHVLTPEMIPPSDRASLQKNIIGSSPVADFSAIKELDTLNNEIVDLQREKNNVEQDLKEKEDTIKQRTSEVQDLQDEVQRENTNLQKLQAQKQQVQELLDELDEQKAQLEEQLKEVRKKCAEEAQLISSLKAELTSQESQISTYEEELAKAREELSRLQQETAELEESVESGKAQLEPLQQHLQDSQQEISSMQMKLMEMKDLENHNSQLNWCSSPHSILVNGATDYCSLSTSSSETANLNEHVEGQSNLESEPIHQESPARSSPELLPSGVTDENEVTTAVTEKVCSELDNNRHSKEEDPFNVDSSSLTGPVADTNLDFFQSDPFVGSDPFKDDPFGKIDPFGGDPFKGSDPFASDCFFRQSTDPFATSSTDPFSAANNSSITSVETLKHNDPFAPGGTVVAASDSATDPFASVFGNESFGGGFADFSTLSKVNNEDPFRSATSSSVSNVVITKNVFEETSVKSEDEPPALPPKIGTPTRPCPLPPGKRSINKLDSPDPFKLNDPFQPFPGNDSPKEKDPEIFCDPFTSATTTTNKEADPSNFANFSAYPSEEDMIEWAKRESEREEEQRLARLNQQEQEDLELAIALSKSEISEA",binds
7,"Extended synaptotagmin-1 (protein, UniProt Q9BSJ8-2 1-1114) MERSPGEGPSPSPMDQPSAPSDPTDQPPAAHAKPDPGSGGQPAGPGAAGEALAVLTSFGRRLLVLIPVYLAGAVGLSVGFVLFGLALYLGWRRVRDEKERSLRAARQLLDDEEQLTAKTLYMSHRELPAWVSFPDVEKAEWLNKIVAQVWPFLGQYMEKLLAETVAPAVRGSNPHLQTFTFTRVELGEKPLRIIGVKVHPGQRKEQILLDLNISYVGDVQIDVEVKKYFCKAGVKGMQLHGVLRVILEPLIGDLPFVGAVSMFFIRRPTLDINWTGMTNLLDIPGLSSLSDTMIMDSIAAFLVLPNRLLVPLVPDLQDVAQLRSPLPRGIIRIHLLAARGLSSKDKYVKGLIEGKSDPYALVRLGTQTFCSRVIDEELNPQWGETYEVMVHEVPGQEIEVEVFDKDPDKDDFLGRMKLDVGKVLQASVLDDWFPLQGGQGQVHLRLEWLSLLSDAEKLEQVLQWNWGVSSRPDPPSAAILVVYLDRAQDLPMVTSELYPPQLKKGNKEPNPMVQLSIQDVTQESKAVYSTNCPVWEEAFRFFLQDPQSQELDVQVKDDSRALTLGALTLPLARLLTAPELILDQWFQLSSSGPNSRLYMKLVMRILYLDSSEICFPTVPGCPGAWDVDSENPQRGSSVDAPPRPCHTTPDSQFGTEHVLRIHVLEAQDLIAKDRFLGGLVKGKSDPYVKLKLAGRSFRSHVVREDLNPRWNEVFEVIVTSVPGQELEVEVFDKDLDKDDFLGRCKVRLTTVLNSGFLDEWLTLEDVPSGRLHLRLERLTPRPTAAELEEVLQVNSLIQTQKSAELAAALLSIYMERAEDLPLRKGTKHLSPYATLTVGDSSHKTKTISQTSAPVWDESASFLIRKPHTESLELQVRGEGTGVLGSLSLPLSELLVADQLCLDRWFTLSSGQGQVLLRAQLGILVSQHSGVEAHSHSYSHSSSSLSEEPELSGGPPHITSSAPELRQRLTHVDSPLEAPAGPLGQVKLTLWYYSEERKLVSIVHGCRSLRQNGRDPPDPYVSLLLLPDKNRGTKRRTSQKKRTLSPEFNERFEWELPLDEAQRRKLDVSVKSNSSFMSRERELLGKVQLDLAETDLSQGVARWYDLMDNKDKGSS",binds
